The values below come from PMC9747961.

Chains of the proteins cited; added tags and fusions are not shown.
UniProt Q91YI4: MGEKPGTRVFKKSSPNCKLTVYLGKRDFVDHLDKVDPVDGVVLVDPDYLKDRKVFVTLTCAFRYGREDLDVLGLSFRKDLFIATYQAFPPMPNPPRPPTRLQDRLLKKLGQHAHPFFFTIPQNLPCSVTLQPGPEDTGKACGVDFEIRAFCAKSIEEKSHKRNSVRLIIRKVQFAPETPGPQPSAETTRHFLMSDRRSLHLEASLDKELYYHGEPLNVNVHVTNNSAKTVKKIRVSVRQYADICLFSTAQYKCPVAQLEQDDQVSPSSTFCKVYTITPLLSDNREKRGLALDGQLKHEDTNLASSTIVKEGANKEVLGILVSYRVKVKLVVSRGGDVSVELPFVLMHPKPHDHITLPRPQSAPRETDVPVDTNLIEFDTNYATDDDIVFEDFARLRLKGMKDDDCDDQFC
UniProt P32121: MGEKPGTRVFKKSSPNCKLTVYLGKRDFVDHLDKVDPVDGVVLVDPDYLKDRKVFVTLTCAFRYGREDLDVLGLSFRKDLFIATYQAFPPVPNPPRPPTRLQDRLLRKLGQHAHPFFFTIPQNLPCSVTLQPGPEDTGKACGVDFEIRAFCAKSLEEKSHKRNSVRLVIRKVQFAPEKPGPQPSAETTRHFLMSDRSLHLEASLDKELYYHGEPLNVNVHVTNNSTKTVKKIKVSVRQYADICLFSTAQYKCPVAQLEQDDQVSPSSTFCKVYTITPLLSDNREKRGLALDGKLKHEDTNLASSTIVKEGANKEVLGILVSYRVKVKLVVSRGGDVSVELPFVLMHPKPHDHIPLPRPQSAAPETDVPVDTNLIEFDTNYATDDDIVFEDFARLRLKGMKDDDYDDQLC

No constants are given. Whether binding was seen depends on the method and setting. Binding seen in cells or lysates may run through a third protein. Some binding calls cover weakened binding; strength is not graded here. Where a sequence is shown, tags or fusion partners need not be part of it.

Assay [1] deals with β-arrestin 2 (in mouse primary VSMCs) (mouse (endogenous in primary VSMCs)) (UniProt Q91YI4). As to the kind of experiment: co-IP; WT mouse primary VSMCs expressing GPR120-tGFP; cells lysed in RIPA buffer; immunoprecipitates analysed by western blot (Fig. 4N, O); an anti-β-arrestin 2 antibody (sc-365445) is listed for the IP assay.
In assay [2] the target is β-arrestin 2 (in 293T cells) (human (endogenous in 293T)) (UniProt P32121). As to the kind of experiment: co-IP; 293T cells transfected with GPR120-tGFP (WT) or K32R/GPR120-tGFP together with the SUMO2-HA plasmid (Fig. S4G).

B1: GPR120-tGFP fusion protein (green fluorescent protein-tagged GPR120), expressed in mouse primary VSMCs (receptor, UniProt Q7TMA4 1-361)
chain: MSPECAQTTGPGPSHTLDQVNRTHFPFFSDVKGDHRLVLSVVETTVLGLIFVVSLLGNVCALVLVARRRRRGATASLVLNLFCADLLFTSAIPLVLVVRWTEAWLLGPVVCHLLFYVMTMSGSVTILTLAAVSLERMVCIVRLRRGLSGPGRRTQAALLAFIWGYSALAALPLCILFRVVPQRLPGGDQEIPICTLDWPNRIGEISWDVFFVTLNFLVPGLVIVISYSKILQITKASRKRLTLSLAYSESHQIRVSQQDYRLFRTLFLLMVSFFIMWSPIIITILLILIQNFRQDLVIWPSLFFWVVAFTFANSALNPILYNMSLFRNEWRKIFCCFFFPEKGAIFTDTSVRRNDLSVISS
Take B1: in assay [1], the binding entry is “binds”.

B2: K32R/GPR120-tGFP fusion protein, expressed in 293T cells with the SUMO2-HA plasmid (receptor, UniProt Q7TMA4 1-361)
chain: MSPECAQTTGPGPSHTLDQVNRTHFPFFSDVRGDHRLVLSVVETTVLGLIFVVSLLGNVCALVLVARRRRRGATASLVLNLFCADLLFTSAIPLVLVVRWTEAWLLGPVVCHLLFYVMTMSGSVTILTLAAVSLERMVCIVRLRRGLSGPGRRTQAALLAFIWGYSALAALPLCILFRVVPQRLPGGDQEIPICTLDWPNRIGEISWDVFFVTLNFLVPGLVIVISYSKILQITKASRKRLTLSLAYSESHQIRVSQQDYRLFRTLFLLMVSFFIMWSPIIITILLILIQNFRQDLVIWPSLFFWVVAFTFANSALNPILYNMSLFRNEWRKIFCCFFFPEKGAIFTDTSVRRNDLSVISS
For the molecule B2, the binding result in assay [2] is listed as “binds”.
